PubChem BioAssay AID1259424, University of Nebraska Medical Center | 2018
Aim: 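Find knockdowns that reproduce the expression shifts seen after KSR1 loss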 (primary screen). Cell system: human HCT116 colon cancer cells. Knock-down reagent: siRNA pool against human genes, 50 nM. Read-out: 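Six signature mRNAs by branched-DNA multiplex assay, scaled to two housekeeping genes and non-targeting median, log2; matched to mean KSR1 knockdown profile by Pearson correlation and euclidean distance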. Direction: mean correlation with KSR1 profile: higher = expression change more like KSR1 knockdown; mean distance from KSR1 profile: higher = expression change less like KSR1 knockdown.
Shown is one part, drawn at random, of about 14,000 reagents tested. 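Higher correlation or smaller distance means closer resemblance to KSR1 loss; control wells, including KSR1 knockdowns, recur on many plates.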 Further read-outs or replicates are left out here. Not stated in the record: the time to read-out.

gene symbol | mean correlation with KSR1 profile | mean distance from KSR1 profile
PDAP1 | 0.096 | 4.06
CR1L | -0.362 | 3.01
PEX14 | 0.0212 | 1.8
E2F6 | 0.199 | 1.43
RRH | 0.471 | 2.02
POP1 | -0.43 | 3.36
PIGV | -0.387 | 1.74
PSD2 | 0.794 | 0.975
ZFYVE28 | -0.31 | 2.36

3 consecutive records from above, quoted:
gene symbol | mean correlation with KSR1 profile | mean distance from KSR1 profile
PEX14 | 0.0212 | 1.8
E2F6 | 0.199 | 1.43
RRH | 0.471 | 2.02

The list goes on:
gene symbol | mean correlation with KSR1 profile | mean distance from KSR1 profile
ADAM15 | -0.0554 | 2.91
CTDNEP1 | -0.355 | 4.08
ZFTRAF1 | 0.331 | 1.61
PSMB4 | 0.249 | 5.09
THRA | 0.0502 | 2.07
SZRD1 | -0.387 | 3.26
FBXO38 | 0.472 | 2.47
RAX2 | 0.00315 | 3.58
GNG5 | 0.297 | 1.72
NEU1 | -0.267 | 2.45
TMOD2 | 0.35 | 1.84
